Assay results published in the supplement of paper PMC10849652.
Some of the results follow.

Sequences of proteins named here, by UniProt entry; tags and fusion partners are left off. A change or cut given only in a name is not applied to a line headed by its entry.
UniProt Q9HBF4: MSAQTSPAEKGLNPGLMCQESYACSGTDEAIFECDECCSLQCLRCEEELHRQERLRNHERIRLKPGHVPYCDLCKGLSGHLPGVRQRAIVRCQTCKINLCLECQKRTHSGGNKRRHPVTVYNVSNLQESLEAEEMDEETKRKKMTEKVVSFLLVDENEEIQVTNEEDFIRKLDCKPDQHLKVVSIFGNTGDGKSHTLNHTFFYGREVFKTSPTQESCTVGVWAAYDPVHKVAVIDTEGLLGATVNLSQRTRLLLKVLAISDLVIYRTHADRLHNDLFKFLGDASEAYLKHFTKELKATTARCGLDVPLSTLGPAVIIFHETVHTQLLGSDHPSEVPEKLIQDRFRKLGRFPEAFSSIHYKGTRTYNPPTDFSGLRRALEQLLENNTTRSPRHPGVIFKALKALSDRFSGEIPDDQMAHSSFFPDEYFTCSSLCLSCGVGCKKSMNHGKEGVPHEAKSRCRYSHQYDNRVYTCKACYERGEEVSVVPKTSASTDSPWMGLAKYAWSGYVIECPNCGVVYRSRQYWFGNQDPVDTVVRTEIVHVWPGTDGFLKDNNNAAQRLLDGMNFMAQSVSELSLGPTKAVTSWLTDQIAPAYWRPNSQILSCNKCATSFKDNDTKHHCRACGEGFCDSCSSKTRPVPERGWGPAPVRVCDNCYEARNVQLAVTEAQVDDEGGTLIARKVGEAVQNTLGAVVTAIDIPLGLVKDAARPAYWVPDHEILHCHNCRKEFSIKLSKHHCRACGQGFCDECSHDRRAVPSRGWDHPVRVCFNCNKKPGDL
UniProt O43298: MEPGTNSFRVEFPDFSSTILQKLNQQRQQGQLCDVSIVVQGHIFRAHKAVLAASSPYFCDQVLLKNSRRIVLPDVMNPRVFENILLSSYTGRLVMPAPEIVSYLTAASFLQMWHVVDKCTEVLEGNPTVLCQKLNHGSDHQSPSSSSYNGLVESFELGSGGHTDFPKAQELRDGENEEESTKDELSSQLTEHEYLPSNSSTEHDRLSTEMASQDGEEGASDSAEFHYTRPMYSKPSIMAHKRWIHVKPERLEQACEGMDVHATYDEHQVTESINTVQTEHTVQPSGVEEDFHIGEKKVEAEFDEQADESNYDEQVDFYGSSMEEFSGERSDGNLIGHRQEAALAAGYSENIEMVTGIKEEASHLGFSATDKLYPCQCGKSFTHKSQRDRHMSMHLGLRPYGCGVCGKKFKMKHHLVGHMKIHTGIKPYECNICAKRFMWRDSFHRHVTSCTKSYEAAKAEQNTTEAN
UniProt P62258: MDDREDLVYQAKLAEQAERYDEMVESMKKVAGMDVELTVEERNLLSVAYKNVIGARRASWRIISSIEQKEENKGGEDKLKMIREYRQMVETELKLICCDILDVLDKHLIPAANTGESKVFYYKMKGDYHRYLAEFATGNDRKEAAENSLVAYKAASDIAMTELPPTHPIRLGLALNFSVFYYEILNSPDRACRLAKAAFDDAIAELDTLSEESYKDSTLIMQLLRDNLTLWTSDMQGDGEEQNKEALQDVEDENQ
UniProt P27348: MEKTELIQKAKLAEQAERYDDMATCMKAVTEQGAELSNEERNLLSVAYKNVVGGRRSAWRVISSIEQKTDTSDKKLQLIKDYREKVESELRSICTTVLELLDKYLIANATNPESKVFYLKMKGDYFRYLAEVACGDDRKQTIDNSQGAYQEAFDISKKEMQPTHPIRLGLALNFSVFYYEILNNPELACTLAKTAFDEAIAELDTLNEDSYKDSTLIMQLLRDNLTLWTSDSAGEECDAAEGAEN
UniProt Q96NC0: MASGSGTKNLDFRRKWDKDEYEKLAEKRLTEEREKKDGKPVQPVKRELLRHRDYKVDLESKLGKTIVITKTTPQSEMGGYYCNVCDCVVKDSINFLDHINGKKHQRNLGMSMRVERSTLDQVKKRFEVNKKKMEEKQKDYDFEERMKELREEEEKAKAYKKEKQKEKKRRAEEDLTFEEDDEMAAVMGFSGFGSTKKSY
UniProt Q9NQW7: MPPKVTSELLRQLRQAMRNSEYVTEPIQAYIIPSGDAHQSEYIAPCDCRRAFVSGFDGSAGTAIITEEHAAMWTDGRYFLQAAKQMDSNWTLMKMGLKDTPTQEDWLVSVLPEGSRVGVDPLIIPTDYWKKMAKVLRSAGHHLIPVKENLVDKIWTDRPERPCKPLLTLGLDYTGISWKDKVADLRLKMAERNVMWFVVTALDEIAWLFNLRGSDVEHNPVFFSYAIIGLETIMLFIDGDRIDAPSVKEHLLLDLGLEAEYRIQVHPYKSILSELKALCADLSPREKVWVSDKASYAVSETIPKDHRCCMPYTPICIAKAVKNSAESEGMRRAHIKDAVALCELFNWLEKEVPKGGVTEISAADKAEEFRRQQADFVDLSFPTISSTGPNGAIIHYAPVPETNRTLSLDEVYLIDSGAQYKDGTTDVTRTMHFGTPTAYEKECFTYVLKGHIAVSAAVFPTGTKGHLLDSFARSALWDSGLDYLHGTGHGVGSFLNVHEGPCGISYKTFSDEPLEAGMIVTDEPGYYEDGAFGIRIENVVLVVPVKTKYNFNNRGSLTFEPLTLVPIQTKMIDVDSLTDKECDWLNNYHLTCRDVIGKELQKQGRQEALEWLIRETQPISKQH
UniProt Q14202: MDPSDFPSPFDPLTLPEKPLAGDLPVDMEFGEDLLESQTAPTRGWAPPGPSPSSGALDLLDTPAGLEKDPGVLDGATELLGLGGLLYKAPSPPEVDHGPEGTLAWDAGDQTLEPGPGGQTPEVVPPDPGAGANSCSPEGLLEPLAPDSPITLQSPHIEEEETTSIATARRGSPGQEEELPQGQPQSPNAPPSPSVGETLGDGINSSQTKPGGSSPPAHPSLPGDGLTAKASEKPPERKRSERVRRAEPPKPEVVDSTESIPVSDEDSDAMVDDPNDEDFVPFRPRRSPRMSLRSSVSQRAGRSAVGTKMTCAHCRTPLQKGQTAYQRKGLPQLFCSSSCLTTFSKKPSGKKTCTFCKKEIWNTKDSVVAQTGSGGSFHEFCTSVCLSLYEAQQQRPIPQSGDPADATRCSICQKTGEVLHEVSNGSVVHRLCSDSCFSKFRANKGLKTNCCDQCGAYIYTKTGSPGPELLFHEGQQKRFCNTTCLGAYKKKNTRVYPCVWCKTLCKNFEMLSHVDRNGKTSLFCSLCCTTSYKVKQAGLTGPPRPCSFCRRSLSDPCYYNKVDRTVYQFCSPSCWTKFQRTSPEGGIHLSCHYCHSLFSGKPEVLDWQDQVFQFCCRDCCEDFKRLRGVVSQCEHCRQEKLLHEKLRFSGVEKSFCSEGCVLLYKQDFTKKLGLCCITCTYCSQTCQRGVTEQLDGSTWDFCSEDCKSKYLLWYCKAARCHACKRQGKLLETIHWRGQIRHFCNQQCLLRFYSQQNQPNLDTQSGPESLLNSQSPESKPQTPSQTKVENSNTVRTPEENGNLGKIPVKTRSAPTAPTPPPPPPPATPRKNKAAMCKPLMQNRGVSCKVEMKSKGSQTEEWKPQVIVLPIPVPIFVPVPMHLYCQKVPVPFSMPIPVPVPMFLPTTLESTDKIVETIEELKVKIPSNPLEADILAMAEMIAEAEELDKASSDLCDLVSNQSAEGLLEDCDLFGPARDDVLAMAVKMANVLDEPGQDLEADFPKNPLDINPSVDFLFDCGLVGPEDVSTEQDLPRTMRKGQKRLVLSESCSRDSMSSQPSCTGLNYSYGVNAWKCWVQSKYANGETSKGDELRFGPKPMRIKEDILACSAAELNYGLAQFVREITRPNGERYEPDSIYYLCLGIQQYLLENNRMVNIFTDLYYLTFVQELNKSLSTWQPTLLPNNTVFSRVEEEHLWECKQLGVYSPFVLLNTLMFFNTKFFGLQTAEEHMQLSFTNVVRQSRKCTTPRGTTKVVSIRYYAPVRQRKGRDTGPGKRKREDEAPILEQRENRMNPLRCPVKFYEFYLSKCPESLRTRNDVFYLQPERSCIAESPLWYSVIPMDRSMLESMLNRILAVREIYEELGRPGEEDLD
UniProt Q7Z7L7: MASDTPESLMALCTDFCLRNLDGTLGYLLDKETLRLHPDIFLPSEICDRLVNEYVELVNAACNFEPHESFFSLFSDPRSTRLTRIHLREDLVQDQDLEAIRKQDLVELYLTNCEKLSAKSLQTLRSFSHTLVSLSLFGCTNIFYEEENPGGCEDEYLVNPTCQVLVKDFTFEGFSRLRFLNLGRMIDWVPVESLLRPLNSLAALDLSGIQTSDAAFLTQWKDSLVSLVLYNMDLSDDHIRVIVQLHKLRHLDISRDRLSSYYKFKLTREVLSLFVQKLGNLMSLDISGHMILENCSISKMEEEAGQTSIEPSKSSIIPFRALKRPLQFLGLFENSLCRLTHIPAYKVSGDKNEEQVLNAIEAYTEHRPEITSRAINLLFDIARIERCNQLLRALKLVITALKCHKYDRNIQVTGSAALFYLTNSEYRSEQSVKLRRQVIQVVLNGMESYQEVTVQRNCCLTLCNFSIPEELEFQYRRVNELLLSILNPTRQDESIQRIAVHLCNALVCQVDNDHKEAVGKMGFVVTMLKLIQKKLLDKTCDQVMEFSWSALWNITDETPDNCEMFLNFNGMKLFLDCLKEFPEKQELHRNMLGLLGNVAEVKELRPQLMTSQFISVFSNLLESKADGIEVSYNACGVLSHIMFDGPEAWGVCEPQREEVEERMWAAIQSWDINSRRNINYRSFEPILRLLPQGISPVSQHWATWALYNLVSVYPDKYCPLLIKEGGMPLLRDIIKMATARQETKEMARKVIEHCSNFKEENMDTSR
UniProt P13010: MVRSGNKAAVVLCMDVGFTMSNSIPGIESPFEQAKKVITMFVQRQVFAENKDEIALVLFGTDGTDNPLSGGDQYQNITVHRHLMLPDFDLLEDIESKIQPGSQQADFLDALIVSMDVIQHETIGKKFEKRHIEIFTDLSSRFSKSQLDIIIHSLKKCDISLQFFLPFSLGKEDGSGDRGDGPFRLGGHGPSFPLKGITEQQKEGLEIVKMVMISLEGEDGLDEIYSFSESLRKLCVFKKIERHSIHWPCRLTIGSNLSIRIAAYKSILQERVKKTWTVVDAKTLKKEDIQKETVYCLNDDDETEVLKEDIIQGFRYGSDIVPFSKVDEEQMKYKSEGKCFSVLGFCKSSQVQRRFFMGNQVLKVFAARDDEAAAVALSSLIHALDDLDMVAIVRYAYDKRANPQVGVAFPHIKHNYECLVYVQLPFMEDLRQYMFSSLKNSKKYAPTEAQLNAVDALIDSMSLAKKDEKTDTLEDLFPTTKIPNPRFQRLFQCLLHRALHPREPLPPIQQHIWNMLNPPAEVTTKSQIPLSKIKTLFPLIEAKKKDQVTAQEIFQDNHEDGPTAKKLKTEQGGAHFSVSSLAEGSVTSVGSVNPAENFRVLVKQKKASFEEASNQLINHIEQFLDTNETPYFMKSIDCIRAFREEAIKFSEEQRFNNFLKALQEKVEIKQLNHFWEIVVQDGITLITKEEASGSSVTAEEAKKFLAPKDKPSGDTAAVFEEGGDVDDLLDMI
UniProt P31946: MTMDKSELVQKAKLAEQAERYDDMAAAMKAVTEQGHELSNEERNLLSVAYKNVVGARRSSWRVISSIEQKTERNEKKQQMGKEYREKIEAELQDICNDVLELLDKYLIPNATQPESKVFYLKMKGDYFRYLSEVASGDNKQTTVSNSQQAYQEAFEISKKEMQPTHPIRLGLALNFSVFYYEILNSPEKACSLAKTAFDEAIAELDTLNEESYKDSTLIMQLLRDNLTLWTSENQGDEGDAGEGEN
UniProt Q5T4F4: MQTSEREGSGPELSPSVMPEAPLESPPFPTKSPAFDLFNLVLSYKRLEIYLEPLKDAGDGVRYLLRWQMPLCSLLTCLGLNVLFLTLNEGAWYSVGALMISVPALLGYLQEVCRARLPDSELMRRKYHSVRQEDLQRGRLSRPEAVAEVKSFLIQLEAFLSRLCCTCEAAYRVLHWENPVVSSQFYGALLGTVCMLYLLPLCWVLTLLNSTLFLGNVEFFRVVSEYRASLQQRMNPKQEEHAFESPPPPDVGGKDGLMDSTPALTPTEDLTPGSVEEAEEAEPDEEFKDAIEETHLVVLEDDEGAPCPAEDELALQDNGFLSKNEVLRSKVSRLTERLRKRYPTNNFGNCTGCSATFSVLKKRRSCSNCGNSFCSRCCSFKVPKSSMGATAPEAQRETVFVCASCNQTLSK
UniProt Q96K21: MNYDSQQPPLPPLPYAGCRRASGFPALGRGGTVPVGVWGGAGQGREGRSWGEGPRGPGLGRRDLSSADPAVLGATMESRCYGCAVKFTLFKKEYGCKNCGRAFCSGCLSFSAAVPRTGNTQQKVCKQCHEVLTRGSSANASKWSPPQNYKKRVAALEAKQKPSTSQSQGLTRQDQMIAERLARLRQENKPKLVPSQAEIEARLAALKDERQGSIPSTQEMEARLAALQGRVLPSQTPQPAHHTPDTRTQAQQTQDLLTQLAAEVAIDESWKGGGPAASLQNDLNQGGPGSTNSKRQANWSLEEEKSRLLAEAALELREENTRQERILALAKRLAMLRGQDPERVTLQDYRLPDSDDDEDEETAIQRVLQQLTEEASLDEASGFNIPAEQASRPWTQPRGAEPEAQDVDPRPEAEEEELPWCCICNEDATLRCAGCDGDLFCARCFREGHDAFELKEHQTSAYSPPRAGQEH

What was measured:
Test in all cases: log2 fold change, soluble protein after heating vs DMSO (PISA); higher = thermal stabilisation; K562 cells, 10 uM, 30 min; active = over 0.2 and 3.5 SD of the protein, either way, in both replicates (recomputed)
[1] = compound: Cc1ccc(NC(=O)c2ccc(CN3CC[C@H](N(C)C)C3)c(C(F)(F)F)c2)cc1Nc1nccc(-c2cncnc2)n1 [bafetinib]
In short: (§1)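 Quantification of soluble protein used TMTpro 16plex LC-MS/MS, with channel sums equalised. Samples were the supernatant after 21,000xg for 90 min of pooled aliquots from K562 cells (2×10^6 cells/mL) treated with 10 μM compound for 30 min, heated for 3 min over 48°C-58°C, and extracted in PBS with 0.5% NP-40 at 4°C. Values, from duplicates, describe thermal stability against control samples on a log2 fold-change scale.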

[2] = compound: Cc1cccc(CC(=O)N2CCc3c2ccc(-c2cn(C)c4ncnc(N)c24)c3F)n1
In short: as §1

[3] = compound: Cc1cn(-c2cc(NC(=O)c3ccc(C)c(Nc4nccc(-c5cccnc5)n4)c3)cc(C(F)(F)F)c2)cn1 [nilotinib]
In short: as §1

[4] = compound: Cc1nc(Nc2n[nH]c3c2CN(C(=O)N[C@H](CN(C)C)c2ccccc2)C3(C)C)c2sccc2n1
In short: as §1

[5] = compound: Cc1nc(Nc2ncc(C(=O)Nc3c(C)cccc3Cl)s2)cc(N2CCN(CCO)CC2)n1 [dasatinib]
In short: as §1

[6] = compound: Cc1ncc(-c2ccnc(Nc3ccc(S(C)(=O)=O)cc3)n2)n1C(C)C
In short: as §1

[7] = compound: Cn1cc(-c2ccc3c(c2)CCN3C(=O)Cc2cccc(C(F)(F)F)c2)c2c(N)ncnc21
In short: as §1

[8] = compound: Cn1cc(-c2ccc3nnc(C(F)(F)c4ccc5ncccc5c4)n3n2)cn1
In short: as §1

[9] = compound: Cn1cncc1[C@@](N)(c1ccc(Cl)cc1)c1ccc2c(c1)c(-c1cccc(Cl)c1)cc(=O)n2C [tipifarnib]
In short: as §1

[10] = compound: FC(F)(F)c1ccc(/C=C/c2nc(COc3ccc(CCCCn4ccnn4)cc3)co2)cc1 [mubritinib]
In short: as §1

Measured: log2 fold change

ZFYVE1 (UniProt Q9HBF4)
inactive: [1] 0.113 | [2] 0.268 | [3] -0.09 | [4] -0.016 | [5] 0.063 | [6] -0.084 | [7] 0.039 | [8] -0.129 | [9] 0.053 | [10] 0.096

ZBTB43 (UniProt O43298)
inactive: [1] -0.006 | [2] -0.025 | [3] -0.157 | [4] 0.043 | [5] -0.034 | [6] 0.16 | [7] 0.023 | [8] -0.054

XPOT (UniProt O43592)
inactive: [1] -0.014 | [2] 0.013 | [3] -0.083 | [4] -0.012 | [5] -0.13 | [6] 0.083 | [7] -0.075 | [8] 0.066 | [9] -0.173 | [10] 0.077

YWHAE (UniProt P62258)
inactive: [1] -0.041 | [2] -0.053 | [3] 0.019 | [4] -0.013 | [5] 0.024 | [6] -0.003 | [7] 0 | [8] 0.031 | [9] 0.024 | [10] 0.038

YWHAQ (UniProt P27348)
active: [2] 0.694
inactive: [1] -0.035 | [3] 0.018 | [4] -0.033 | [5] -0.149 | [6] -0.026 | [7] 0.124 | [8] -0.066 | [9] -0.112 | [10] 0.049

ZMAT2 (UniProt Q96NC0)
inactive: [1] -0.053 | [2] -0.037 | [3] 0.012 | [4] 0.07 | [5] 0.042 | [6] -0.027 | [7] -0.023 | [8] -0.051 | [9] -0.058 | [10] 0.049

ZDHHC18 (UniProt Q9NUE0)
inactive: [1] 0.159 | [2] -0.317 | [3] 0.129 | [4] -0.057 | [5] -0.111 | [6] -0.072 | [7] -0.009 | [8] -0.094 | [9] -0.112 | [10] -0.013

XPNPEP1 isoform 3 (UniProt Q9NQW7)
inactive: [1] -0.047 | [2] -0.013 | [3] -0.036 | [4] 0.014 | [5] -0.086 | [6] -0.028 | [7] 0.084 | [8] 0.039 | [9] -0.033 | [10] 0.042

ZMYM3 (UniProt Q14202)
inactive: [1] -0.061 | [2] -0.121 | [3] 0.041 | [4] -0.01 | [5] 0.047 | [6] -0.009 | [7] 0.053 | [9] 0.027 | [10] -0.072
active: [8] -0.246

ZER1 (UniProt Q7Z7L7)
inactive: [1] -0.055 | [2] 0.369 | [3] 0.098 | [4] -0.141 | [5] -0.033 | [6] 0.058 | [7] -0.021 | [8] -0.024 | [9] 0.111 | [10] 0.044

Two neighbouring entries out of the list so far:
XPOT (UniProt O43592)
inactive: [1] -0.014 | [2] 0.013 | [3] -0.083 | [4] -0.012 | [5] -0.13 | [6] 0.083 | [7] -0.075 | [8] 0.066 | [9] -0.173 | [10] 0.077

YWHAE (UniProt P62258)
inactive: [1] -0.041 | [2] -0.053 | [3] 0.019 | [4] -0.013 | [5] 0.024 | [6] -0.003 | [7] 0 | [8] 0.031 | [9] 0.024 | [10] 0.038

The listing continues:

XRCC5 (UniProt P13010)
inactive: [1] 0.083 | [2] 0.07 | [3] -0.12 | [4] -0.405 | [5] -0.118 | [6] -0.243 | [7] 0.105 | [8] 0.123 | [9] -0.082 | [10] -0.014

YWHAB (UniProt P31946)
inactive: [1] -0.008 | [2] -0.058 | [3] 0.039 | [4] -0.002 | [5] 0.006 | [6] 0 | [7] 0.005 | [8] -0.037 | [9] 0.059 | [10] 0.045

ZFYVE27 isoform 2 (UniProt Q5T4F4)
inactive: [1] -0.007 | [2] 0.203 | [3] -0.032 | [4] 0.012 | [5] -0.019 | [6] -0.036 | [7] 0.046 | [8] -0.061 | [9] -0.01 | [10] -0.033

ZNF148 (UniProt Q9UQR1)
inactive: [1] -0.082 | [2] 0.02 | [3] 0.178 | [4] -0.173 | [5] 0.106 | [6] 0.036 | [7] -0.094 | [8] 0.441 | [9] 0.026 | [10] 0.13

ZFYVE19 (UniProt Q96K21)
inactive: [1] -0.081 | [2] -0.046 | [3] 0.055 | [4] 0.015 | [5] 0.038 | [6] -0.012 | [7] -0.002 | [8] 0.01 | [9] 0.06 | [10] 0.029
